Results are given in words; binding and its absence hold for the method and conditions named. Some binding calls cover weakened binding; strength is not graded here. Tags and fused reporters may be left off the sequences shown.
Assays:
[1] = target: T1, CycD1 (Arath; CycD1; 1) in DB-vector (A. thaliana) (UniProt P04386+P42751); assay: yeast two-hybrid (MaV203), X-Gal filter assay for β-galactosidase; AD construct x BD construct
[2] = target: T2, CycD3 (Arath; CycD3; 1) in DB-vector (Arabidopsis) (UniProt P04386+P42753); assay: as above
[3] = target: T3, CycD2 (Arath; CycD2; 1) in DB-vector (Arabidopsis) (UniProt P04386+P42752); assay: as above
[4] = target: T1, CycD1 (Arath; CycD1; 1) in DB-vector (A. thaliana); assay: yeast two-hybrid
[5] = target: T2, CycD3 (Arath; CycD3; 1) in DB-vector (Arabidopsis); assay: yeast two-hybrid
[6] = target: T3, CycD2 (Arath; CycD2; 1) in DB-vector (Arabidopsis); assay: yeast two-hybrid

Protein sequences, listed by entry. Tags and fused reporters are not part of them. Lines headed by an entry give the natural chain unless they say otherwise; changes in a name come on top.
UniProt P04386: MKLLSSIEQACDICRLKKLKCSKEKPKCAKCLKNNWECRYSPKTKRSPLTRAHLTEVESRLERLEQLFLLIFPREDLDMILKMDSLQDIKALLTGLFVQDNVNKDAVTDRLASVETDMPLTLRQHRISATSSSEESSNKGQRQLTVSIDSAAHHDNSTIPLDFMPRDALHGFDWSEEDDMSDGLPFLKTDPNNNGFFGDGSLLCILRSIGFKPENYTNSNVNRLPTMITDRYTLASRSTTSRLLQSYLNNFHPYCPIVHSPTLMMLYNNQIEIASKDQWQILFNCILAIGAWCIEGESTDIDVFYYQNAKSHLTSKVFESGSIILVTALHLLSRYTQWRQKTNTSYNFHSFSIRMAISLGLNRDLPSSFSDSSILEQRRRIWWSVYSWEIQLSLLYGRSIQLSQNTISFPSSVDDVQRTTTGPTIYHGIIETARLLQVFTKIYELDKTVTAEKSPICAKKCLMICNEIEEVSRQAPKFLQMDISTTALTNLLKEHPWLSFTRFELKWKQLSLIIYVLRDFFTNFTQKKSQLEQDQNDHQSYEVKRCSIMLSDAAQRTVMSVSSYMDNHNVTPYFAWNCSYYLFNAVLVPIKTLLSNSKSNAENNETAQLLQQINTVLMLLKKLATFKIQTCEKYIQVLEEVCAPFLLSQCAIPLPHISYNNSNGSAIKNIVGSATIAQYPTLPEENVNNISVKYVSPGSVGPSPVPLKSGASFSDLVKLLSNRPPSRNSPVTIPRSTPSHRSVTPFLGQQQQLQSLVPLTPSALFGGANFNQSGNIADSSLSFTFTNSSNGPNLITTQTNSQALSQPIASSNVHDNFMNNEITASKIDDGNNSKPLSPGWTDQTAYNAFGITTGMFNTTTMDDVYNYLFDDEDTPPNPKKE
UniProt P42751: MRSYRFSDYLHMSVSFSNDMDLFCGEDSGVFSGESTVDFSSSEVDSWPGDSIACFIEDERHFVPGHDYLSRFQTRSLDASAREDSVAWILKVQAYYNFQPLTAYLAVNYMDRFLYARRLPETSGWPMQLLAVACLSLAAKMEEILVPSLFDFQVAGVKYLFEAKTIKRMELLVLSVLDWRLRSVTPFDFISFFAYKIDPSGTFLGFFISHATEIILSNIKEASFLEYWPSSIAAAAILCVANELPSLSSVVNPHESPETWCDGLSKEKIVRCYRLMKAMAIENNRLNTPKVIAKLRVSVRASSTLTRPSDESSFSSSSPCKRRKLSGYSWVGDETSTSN
UniProt P42753: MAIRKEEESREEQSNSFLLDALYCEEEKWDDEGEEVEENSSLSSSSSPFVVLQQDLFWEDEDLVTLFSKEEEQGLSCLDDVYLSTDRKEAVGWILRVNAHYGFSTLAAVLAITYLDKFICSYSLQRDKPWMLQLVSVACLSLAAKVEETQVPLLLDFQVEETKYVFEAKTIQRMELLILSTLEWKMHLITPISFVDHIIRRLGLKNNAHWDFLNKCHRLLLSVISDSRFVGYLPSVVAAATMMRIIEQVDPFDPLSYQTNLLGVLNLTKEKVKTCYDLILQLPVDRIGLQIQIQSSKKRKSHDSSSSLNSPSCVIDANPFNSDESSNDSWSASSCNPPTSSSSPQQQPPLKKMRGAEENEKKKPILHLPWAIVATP
UniProt P42752: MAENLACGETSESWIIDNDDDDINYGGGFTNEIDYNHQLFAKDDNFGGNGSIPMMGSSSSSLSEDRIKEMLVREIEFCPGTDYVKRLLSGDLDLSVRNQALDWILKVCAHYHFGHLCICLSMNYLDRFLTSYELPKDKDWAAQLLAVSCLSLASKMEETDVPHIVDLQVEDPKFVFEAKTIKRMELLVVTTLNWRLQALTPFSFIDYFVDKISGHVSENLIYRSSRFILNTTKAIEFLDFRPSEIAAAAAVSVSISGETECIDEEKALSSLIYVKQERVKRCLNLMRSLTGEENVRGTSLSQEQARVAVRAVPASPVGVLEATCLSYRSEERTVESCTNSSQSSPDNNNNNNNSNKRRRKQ

binding [1]: binds
binding [2]: binds
binding [3]: binds
binding [4]: binds
binding [5]: binds
binding [6]: binds
B1: ICDK of Chenopodium rubrum (AD construct) (protein, not shown: large carriers)
chain: MAAAATPTSSPAKKIKKVSKSSYNIPQLRSRRKNLSAPENFAELETTPLEVAAVVEEEEVANCSSSEVITTARSDFPPSCCSSNYDQLSSSEPEVVKDDDGLGNRTADPEVESGEASSKQKESHRTEAREATKLDDQDYPATKSTVQIKMPSDSEIEEFFAVAEKDLQKRFSEKYNFDIVKDVPLKGRYDWVPINP
